# Assay results published in the supplement of paper PMC12823440, “Inhibitors supercharge kinase turnover through native proteolytic circuits” (Nature, 2025).
# The chains behind the UniProt entries cited, without tags or fusion partners. Where a name states a change or a piece, a line headed by the entry shows the natural chain unless it says otherwise.
# UniProt P49137, whole entry, looked up: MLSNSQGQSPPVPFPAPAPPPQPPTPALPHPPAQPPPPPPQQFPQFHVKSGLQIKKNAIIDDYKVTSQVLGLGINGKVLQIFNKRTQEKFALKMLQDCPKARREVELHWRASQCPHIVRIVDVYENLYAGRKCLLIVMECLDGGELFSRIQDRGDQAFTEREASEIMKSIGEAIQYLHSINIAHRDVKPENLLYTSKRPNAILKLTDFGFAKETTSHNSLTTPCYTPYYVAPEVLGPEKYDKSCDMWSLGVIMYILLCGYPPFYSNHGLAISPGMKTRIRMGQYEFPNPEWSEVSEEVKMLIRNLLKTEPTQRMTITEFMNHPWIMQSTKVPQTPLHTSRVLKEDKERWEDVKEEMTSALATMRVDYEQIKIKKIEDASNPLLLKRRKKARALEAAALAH
# UniProt Q16620, whole entry, looked up: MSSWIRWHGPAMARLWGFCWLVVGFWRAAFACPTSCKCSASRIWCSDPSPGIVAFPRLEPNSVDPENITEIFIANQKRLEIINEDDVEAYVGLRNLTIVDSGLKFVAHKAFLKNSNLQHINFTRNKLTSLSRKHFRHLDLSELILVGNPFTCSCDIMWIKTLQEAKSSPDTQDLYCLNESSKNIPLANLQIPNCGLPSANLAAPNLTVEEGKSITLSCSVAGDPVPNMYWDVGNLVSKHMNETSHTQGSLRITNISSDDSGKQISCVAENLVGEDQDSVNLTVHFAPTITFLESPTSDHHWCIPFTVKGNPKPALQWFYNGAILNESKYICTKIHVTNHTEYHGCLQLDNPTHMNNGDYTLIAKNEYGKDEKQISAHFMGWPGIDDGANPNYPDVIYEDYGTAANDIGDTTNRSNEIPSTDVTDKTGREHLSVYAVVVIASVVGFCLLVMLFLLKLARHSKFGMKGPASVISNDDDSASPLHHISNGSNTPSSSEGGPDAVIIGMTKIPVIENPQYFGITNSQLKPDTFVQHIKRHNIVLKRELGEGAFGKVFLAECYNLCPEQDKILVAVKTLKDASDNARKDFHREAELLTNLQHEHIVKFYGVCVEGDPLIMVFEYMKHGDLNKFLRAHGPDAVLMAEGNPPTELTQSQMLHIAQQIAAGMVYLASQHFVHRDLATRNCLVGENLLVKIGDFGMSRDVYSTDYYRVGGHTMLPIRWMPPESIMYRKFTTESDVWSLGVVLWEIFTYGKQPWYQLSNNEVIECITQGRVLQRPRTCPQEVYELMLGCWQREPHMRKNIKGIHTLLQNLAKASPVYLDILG
# UniProt Q16288, whole entry, looked up: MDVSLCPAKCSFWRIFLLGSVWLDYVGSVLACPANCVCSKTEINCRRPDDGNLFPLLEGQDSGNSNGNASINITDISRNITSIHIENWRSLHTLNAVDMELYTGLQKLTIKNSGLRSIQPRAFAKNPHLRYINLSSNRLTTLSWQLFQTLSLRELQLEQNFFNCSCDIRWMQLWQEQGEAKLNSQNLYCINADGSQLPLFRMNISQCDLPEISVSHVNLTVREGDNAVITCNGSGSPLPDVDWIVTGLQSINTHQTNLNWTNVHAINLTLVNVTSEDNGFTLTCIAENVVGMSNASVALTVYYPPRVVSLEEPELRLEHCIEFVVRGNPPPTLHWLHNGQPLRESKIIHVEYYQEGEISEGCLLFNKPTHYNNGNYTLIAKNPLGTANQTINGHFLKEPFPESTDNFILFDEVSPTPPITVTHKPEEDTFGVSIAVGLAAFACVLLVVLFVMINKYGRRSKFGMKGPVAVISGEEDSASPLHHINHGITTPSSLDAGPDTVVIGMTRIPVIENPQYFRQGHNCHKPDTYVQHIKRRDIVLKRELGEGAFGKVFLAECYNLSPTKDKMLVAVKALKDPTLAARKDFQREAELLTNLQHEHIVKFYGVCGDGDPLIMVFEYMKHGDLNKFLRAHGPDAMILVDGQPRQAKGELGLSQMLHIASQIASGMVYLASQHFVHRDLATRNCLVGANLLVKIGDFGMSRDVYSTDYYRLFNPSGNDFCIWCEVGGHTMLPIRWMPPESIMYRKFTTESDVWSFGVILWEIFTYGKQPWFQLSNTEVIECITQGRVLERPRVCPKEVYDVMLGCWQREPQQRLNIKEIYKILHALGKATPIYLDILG
# UniProt Q96KB5: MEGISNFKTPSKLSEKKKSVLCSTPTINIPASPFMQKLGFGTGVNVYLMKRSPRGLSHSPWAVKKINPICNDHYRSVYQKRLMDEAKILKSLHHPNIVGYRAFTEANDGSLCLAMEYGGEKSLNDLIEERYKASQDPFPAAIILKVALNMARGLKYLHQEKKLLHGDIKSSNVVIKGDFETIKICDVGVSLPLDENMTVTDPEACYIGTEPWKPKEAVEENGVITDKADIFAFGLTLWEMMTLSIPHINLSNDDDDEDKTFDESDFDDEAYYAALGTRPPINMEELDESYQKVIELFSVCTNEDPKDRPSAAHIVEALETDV
# UniProt Q15118, whole entry, looked up: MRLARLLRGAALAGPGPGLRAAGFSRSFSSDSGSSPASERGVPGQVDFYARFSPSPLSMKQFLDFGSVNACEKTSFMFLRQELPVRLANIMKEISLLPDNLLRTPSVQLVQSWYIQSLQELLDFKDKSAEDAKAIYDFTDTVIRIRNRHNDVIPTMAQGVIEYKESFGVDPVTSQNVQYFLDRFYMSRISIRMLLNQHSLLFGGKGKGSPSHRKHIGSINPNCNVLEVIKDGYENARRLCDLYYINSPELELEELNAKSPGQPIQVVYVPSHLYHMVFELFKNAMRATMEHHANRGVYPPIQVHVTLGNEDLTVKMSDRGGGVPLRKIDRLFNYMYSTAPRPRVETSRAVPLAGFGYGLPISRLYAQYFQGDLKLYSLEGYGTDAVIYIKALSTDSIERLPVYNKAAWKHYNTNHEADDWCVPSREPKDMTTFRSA
# UniProt P42356, whole entry, looked up: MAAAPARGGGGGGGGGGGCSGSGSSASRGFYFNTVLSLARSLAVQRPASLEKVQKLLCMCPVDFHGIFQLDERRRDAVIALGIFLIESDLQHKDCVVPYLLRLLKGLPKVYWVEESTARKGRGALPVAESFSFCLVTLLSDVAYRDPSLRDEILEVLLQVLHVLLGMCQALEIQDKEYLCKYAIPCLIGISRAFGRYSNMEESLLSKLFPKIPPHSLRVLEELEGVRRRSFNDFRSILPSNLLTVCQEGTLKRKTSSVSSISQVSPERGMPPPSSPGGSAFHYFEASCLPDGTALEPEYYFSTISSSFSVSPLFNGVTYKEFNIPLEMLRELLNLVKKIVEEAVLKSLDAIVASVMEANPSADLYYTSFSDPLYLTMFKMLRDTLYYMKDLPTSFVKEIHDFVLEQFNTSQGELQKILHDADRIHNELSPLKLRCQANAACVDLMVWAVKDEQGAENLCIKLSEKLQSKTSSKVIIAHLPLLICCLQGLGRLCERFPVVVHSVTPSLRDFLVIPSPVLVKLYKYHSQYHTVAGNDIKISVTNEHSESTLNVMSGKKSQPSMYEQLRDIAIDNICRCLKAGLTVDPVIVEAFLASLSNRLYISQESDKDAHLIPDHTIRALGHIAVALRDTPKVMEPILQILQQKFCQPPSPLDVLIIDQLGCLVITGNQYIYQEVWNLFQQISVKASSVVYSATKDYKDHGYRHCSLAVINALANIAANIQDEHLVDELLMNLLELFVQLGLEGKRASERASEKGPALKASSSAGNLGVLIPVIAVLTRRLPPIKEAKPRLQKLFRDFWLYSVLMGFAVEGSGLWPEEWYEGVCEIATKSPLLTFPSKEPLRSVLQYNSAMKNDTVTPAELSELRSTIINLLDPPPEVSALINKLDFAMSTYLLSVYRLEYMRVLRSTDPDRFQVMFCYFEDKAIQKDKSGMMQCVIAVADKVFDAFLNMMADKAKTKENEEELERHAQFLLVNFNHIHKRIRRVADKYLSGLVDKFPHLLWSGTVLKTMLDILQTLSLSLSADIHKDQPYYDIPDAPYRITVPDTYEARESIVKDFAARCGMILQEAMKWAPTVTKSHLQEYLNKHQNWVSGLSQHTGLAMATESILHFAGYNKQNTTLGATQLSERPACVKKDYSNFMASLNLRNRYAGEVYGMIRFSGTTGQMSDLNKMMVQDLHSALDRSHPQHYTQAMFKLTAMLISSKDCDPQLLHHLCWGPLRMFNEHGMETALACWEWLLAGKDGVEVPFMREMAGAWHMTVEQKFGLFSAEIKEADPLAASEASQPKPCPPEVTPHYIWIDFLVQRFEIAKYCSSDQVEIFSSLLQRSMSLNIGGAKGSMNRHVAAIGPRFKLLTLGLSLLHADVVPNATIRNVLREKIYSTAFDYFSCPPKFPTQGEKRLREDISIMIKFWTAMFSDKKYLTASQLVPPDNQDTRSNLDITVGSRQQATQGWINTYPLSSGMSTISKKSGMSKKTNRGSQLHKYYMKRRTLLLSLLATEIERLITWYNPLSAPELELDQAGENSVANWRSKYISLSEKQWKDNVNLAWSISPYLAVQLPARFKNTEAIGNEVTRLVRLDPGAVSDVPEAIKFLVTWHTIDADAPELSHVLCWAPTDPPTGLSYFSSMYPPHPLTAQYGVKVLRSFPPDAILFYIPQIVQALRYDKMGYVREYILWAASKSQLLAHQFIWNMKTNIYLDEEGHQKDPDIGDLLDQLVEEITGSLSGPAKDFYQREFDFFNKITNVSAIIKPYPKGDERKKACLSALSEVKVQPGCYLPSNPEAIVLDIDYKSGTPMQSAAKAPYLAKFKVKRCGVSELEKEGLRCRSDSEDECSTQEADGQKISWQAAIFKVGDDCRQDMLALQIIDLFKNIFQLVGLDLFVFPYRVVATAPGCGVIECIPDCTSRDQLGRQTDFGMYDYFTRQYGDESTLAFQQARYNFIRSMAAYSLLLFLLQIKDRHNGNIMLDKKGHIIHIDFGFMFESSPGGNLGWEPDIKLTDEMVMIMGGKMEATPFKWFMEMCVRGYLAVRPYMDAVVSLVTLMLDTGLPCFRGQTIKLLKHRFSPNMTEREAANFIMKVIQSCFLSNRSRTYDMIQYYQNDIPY
# UniProt P53350, whole entry: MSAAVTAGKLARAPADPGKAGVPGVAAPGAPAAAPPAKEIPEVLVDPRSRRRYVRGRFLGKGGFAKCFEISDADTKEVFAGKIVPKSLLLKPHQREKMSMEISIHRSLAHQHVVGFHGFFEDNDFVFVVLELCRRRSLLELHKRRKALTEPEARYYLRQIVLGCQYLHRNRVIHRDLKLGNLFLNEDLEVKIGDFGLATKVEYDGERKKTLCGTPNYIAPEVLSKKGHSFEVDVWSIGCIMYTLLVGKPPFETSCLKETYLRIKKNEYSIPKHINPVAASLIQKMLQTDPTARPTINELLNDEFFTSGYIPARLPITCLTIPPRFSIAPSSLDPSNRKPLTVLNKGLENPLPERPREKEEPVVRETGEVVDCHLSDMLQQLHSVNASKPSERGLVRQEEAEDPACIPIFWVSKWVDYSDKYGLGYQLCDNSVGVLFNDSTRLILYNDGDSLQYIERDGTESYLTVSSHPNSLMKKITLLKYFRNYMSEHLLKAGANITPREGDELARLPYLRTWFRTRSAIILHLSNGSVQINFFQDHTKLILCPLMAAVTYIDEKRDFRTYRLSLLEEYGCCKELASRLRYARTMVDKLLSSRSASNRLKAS
# UniProt Q14289, whole entry, looked up: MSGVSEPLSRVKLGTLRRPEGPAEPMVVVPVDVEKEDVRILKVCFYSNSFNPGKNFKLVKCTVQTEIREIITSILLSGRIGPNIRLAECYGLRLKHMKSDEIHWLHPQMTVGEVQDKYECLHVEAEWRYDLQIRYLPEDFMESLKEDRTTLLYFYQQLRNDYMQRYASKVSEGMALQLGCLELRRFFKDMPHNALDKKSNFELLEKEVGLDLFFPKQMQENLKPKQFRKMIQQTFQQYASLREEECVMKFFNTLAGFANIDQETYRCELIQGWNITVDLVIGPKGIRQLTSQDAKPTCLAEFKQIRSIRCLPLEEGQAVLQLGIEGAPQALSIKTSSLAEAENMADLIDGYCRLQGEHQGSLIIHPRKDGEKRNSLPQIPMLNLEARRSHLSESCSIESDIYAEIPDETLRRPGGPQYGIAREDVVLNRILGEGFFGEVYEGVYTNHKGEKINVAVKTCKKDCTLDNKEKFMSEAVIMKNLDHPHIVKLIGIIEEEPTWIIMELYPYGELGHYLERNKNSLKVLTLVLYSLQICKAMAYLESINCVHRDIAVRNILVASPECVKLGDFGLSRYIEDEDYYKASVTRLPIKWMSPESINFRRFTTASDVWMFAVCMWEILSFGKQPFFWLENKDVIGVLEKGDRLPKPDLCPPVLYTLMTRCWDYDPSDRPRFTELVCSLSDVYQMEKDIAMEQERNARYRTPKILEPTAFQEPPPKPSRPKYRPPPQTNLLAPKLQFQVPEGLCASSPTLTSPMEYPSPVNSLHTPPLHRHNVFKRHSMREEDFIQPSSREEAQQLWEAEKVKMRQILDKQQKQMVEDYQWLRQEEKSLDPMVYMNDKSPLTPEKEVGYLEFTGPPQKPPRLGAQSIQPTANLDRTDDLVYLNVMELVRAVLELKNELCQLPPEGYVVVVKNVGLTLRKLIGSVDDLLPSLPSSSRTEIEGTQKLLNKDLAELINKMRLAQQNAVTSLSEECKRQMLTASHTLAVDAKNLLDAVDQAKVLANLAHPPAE
# This is one part of the list. Hit calls seldom repeat between salt and free forms of one compound.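 In K562 cells expressing nanoluciferase-fused kinases, luminescence was recorded at 4 h intervals between 2 and 18 h, normalized as percent of control with DMSO at 100% and a positive control at 0%. A significant (2 sigma) signal drop marks a time point as decreased. The authors' rule for a hit is not shown and takes in more than the number of time points.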
# Tests used:
# Assay in all cases: kinase-Nluc reporter destabilization hit call (1 = scored as downregulated) (binary); higher = compound decreases kinase abundance
# Conditions in all cases: K562; 2-18 h
# MAPK1 = MAPK1 (UniProt P28482)
# MAPK4 = MAPK4 (UniProt P31152)
# MAPKAPK2 = MAPKAPK2 (UniProt P49137)
# MKNK1 = MKNK1 (UniProt Q9BUB5)
# NTRK2 = NTRK2 (UniProt Q16620)
# NTRK3 = NTRK3 (UniProt Q16288)
# PAK4 = PAK4 (UniProt O96013)
# PBK = PBK (UniProt Q96KB5)
# PDGFRB = PDGFRB (UniProt P09619)
# PDK1 = PDK1 (UniProt Q15118)
# PDPK1 = PDPK1 (UniProt O15530)
# PIK4CA = PIK4CA (UniProt P42356)
# PIK4CB = PIK4CB (UniProt Q9UBF8)
# PLK1 = PLK1 (UniProt P53350)
# PRKAA1 = PRKAA1 (UniProt Q13131)
# PRKCA = PRKCA (UniProt P17252)
# PTK2 = PTK2 (UniProt Q05397)
# PTK2B = PTK2B (UniProt Q14289)
# RAF1 = RAF1 (UniProt P04049)
# [1] = biological target: RAF1_S257L (clone: RAF1_mut) (UniProt P04049)
SMILES,kinase-Nluc reporter destabilization hit call (MAPK1),kinase-Nluc reporter destabilization hit call (MAPK4),kinase-Nluc reporter destabilization hit call (MAPKAPK2),kinase-Nluc reporter destabilization hit call (MKNK1),kinase-Nluc reporter destabilization hit call (NTRK2),kinase-Nluc reporter destabilization hit call (NTRK3),kinase-Nluc reporter destabilization hit call (PAK4),kinase-Nluc reporter destabilization hit call (PBK),kinase-Nluc reporter destabilization hit call (PDGFRB),kinase-Nluc reporter destabilization hit call (PDK1),kinase-Nluc reporter destabilization hit call (PDPK1),kinase-Nluc reporter destabilization hit call (PIK4CA),kinase-Nluc reporter destabilization hit call (PIK4CB),kinase-Nluc reporter destabilization hit call (PLK1),kinase-Nluc reporter destabilization hit call (PRKAA1),kinase-Nluc reporter destabilization hit call (PRKCA),kinase-Nluc reporter destabilization hit call (PTK2),kinase-Nluc reporter destabilization hit call (PTK2B),kinase-Nluc reporter destabilization hit call (RAF1),kinase-Nluc reporter destabilization hit call [1]
Cc1c[nH]c(/C=C2\C(=O)Nc3ccccc32)c1CCC(=O)O (10 µM),inactive: 0,inactive: 0,inactive: 0,inactive: 0,inactive: 0,inactive: 0,inactive: 0,inactive: 0,inactive: 0,inactive: 0,inactive: 0,inactive: 0,inactive: 0,inactive: 0,inactive: 0,inactive: 0,inactive: 0,inactive: 0,inactive: 0,inactive: 0
CN1CCN(C(=O)c2ccc(-c3ccc4c(C=O)c(O)ccc4c3)s2)CC1 (2.5 µM),inactive: 0,inactive: 0,inactive: 0,inactive: 0,inactive: 0,inactive: 0,inactive: 0,inactive: 0,inactive: 0,inactive: 0,inactive: 0,inactive: 0,inactive: 0,inactive: 0,inactive: 0,inactive: 0,inactive: 0,inactive: 0,inactive: 0,inactive: 0
C/C=C(/C)C(=O)O[C@H]1Cc2cc3ccc(=O)oc3cc2OC1(C)C [Decursinol angelate] (10 µM),inactive: 0,inactive: 0,inactive: 0,inactive: 0,inactive: 0,inactive: 0,inactive: 0,inactive: 0,inactive: 0,inactive: 0,inactive: 0,inactive: 0,inactive: 0,inactive: 0,inactive: 0,inactive: 0,inactive: 0,inactive: 0,inactive: 0,inactive: 0
Cc1cc(F)c(C(=O)Nc2cccc(-c3nncn3C(C)C)n2)cc1-n1cnc(C2CC2)c1 [Selonsertib] (10 µM),inactive: 0,inactive: 0,inactive: 0,inactive: 0,inactive: 0,inactive: 0,inactive: 0,inactive: 0,inactive: 0,inactive: 0,inactive: 0,inactive: 0,inactive: 0,inactive: 0,inactive: 0,inactive: 0,inactive: 0,inactive: 0,inactive: 0,inactive: 0
Cc1c[nH]c2nccc(Oc3c(F)cc(Nc4cc(Cl)nc(N)n4)cc3F)c12 (10 µM),inactive: 0,inactive: 0,inactive: 0,inactive: 0,inactive: 0,inactive: 0,inactive: 0,inactive: 0,inactive: 0,inactive: 0,inactive: 0,inactive: 0,inactive: 0,inactive: 0,inactive: 0,inactive: 0,active: 1,inactive: 0,inactive: 0,inactive: 0
COc1cc2c(Nc3ccc(NC(=O)c4ccccc4)cc3)ncnc2cc1OCCCN1CCOCC1 (10 µM),inactive: 0,inactive: 0,inactive: 0,inactive: 0,inactive: 0,inactive: 0,inactive: 0,inactive: 0,inactive: 0,inactive: 0,inactive: 0,inactive: 0,inactive: 0,inactive: 0,inactive: 0,inactive: 0,inactive: 0,inactive: 0,inactive: 0,inactive: 0
CC(C)n1cnc2c(NCc3cccc(C(F)(F)F)c3)ncnc21 [Longdaysin] (10 µM),inactive: 0,inactive: 0,inactive: 0,inactive: 0,inactive: 0,inactive: 0,inactive: 0,inactive: 0,inactive: 0,inactive: 0,inactive: 0,inactive: 0,inactive: 0,inactive: 0,inactive: 0,inactive: 0,inactive: 0,inactive: 0,inactive: 0,inactive: 0
Oc1cc(O)cc(/C=C/c2ccc(O)c(O)c2)c1 [Piceatannol] (10 µM),inactive: 0,inactive: 0,inactive: 0,inactive: 0,inactive: 0,inactive: 0,inactive: 0,inactive: 0,inactive: 0,inactive: 0,inactive: 0,inactive: 0,inactive: 0,inactive: 0,inactive: 0,inactive: 0,inactive: 0,inactive: 0,inactive: 0,inactive: 0
Cc1cc(C(=O)Nc2cccc(C(=O)Nc3cccc(C(F)(F)F)c3)c2)on1 (10 µM),inactive: 0,inactive: 0,inactive: 0,inactive: 0,inactive: 0,inactive: 0,inactive: 0,inactive: 0,inactive: 0,inactive: 0,inactive: 0,inactive: 0,inactive: 0,inactive: 0,inactive: 0,inactive: 0,inactive: 0,inactive: 0,inactive: 0,inactive: 0
O=c1oc2c(C3OCCCO3)c(O)ccc2c2c1CNCC2 (10 µM),inactive: 0,inactive: 0,inactive: 0,inactive: 0,inactive: 0,inactive: 0,inactive: 0,inactive: 0,inactive: 0,inactive: 0,inactive: 0,inactive: 0,inactive: 0,inactive: 0,inactive: 0,inactive: 0,inactive: 0,inactive: 0,inactive: 0,inactive: 0
Cn1nc(C(C)(C)C)cc1NC(=O)Nc1ccc(Oc2ccncc2)cc1 (10 µM),inactive: 0,inactive: 0,inactive: 0,inactive: 0,inactive: 0,inactive: 0,inactive: 0,inactive: 0,inactive: 0,inactive: 0,inactive: 0,inactive: 0,inactive: 0,inactive: 0,inactive: 0,inactive: 0,inactive: 0,inactive: 0,inactive: 0,inactive: 0
COc1cc2ncnc(Nc3cccc(Cl)c3F)c2cc1OC(=O)N1CCN(C)C[C@H]1C [Zorifertinib] (10 µM),inactive: 0,inactive: 0,inactive: 0,inactive: 0,inactive: 0,inactive: 0,inactive: 0,inactive: 0,inactive: 0,inactive: 0,inactive: 0,inactive: 0,inactive: 0,inactive: 0,inactive: 0,inactive: 0,inactive: 0,inactive: 0,inactive: 0,inactive: 0
O=C(Nc1ccc(-c2ccnc(Nc3ccc(N4CCOCC4)cc3)n2)cc1)C1CCCN1 (stereo not given) (10 µM),inactive: 0,inactive: 0,inactive: 0,inactive: 0,inactive: 0,inactive: 0,inactive: 0,inactive: 0,inactive: 0,inactive: 0,inactive: 0,inactive: 0,inactive: 0,inactive: 0,inactive: 0,inactive: 0,inactive: 0,inactive: 0,inactive: 0,inactive: 0
Cc1ccc(NC(=O)Nc2nnc(Sc3ncnc4cc(OCCCN5CCOCC5)ccc34)s2)cc1 (10 µM),inactive: 0,inactive: 0,inactive: 0,inactive: 0,inactive: 0,inactive: 0,inactive: 0,inactive: 0,inactive: 0,inactive: 0,inactive: 0,inactive: 0,inactive: 0,inactive: 0,inactive: 0,inactive: 0,inactive: 0,inactive: 0,inactive: 0,inactive: 0
Cc1nc(-c2cnc(NC(C)C)n(C)c2=O)ccc1Oc1ccnc(-c2cnn(C)c2)c1 (2.5 µM),inactive: 0,inactive: 0,inactive: 0,inactive: 0,inactive: 0,inactive: 0,inactive: 0,inactive: 0,inactive: 0,inactive: 0,inactive: 0,inactive: 0,inactive: 0,inactive: 0,inactive: 0,inactive: 0,inactive: 0,inactive: 0,inactive: 0,inactive: 0
CN(C)Cc1ccc(-c2cnn3c(-c4cccc(NC(=O)c5cccc(C(F)(F)F)c5)c4)ccnc23)cc1 (2.5 µM),inactive: 0,inactive: 0,inactive: 0,inactive: 0,inactive: 0,inactive: 0,inactive: 0,inactive: 0,inactive: 0,inactive: 0,inactive: 0,inactive: 0,inactive: 0,inactive: 0,inactive: 0,inactive: 0,inactive: 0,inactive: 0,inactive: 0,inactive: 0
CCN1CCN(Cc2ccc(C(=O)Nc3ccc(C)c(Oc4ccc5c(c4)CC(=O)N5)c3)cc2C(F)(F)F)CC1 (2.5 µM),inactive: 0,inactive: 0,inactive: 0,inactive: 0,inactive: 0,inactive: 0,inactive: 0,inactive: 0,inactive: 0,inactive: 0,inactive: 0,inactive: 0,inactive: 0,inactive: 0,inactive: 0,inactive: 0,inactive: 0,inactive: 0,inactive: 0,inactive: 0
N#Cc1ccc2[nH]c(O)c(-c3ccc(CN4CCOCC4)cn3)c2c1 (10 µM),inactive: 0,inactive: 0,inactive: 0,inactive: 0,inactive: 0,inactive: 0,inactive: 0,inactive: 0,inactive: 0,inactive: 0,inactive: 0,inactive: 0,inactive: 0,inactive: 0,inactive: 0,inactive: 0,inactive: 0,inactive: 0,inactive: 0,inactive: 0

# Retrieved by structure from the list above (2):
SMILES,kinase-Nluc reporter destabilization hit call (MAPK1),kinase-Nluc reporter destabilization hit call (MAPK4),kinase-Nluc reporter destabilization hit call (MAPKAPK2),kinase-Nluc reporter destabilization hit call (MKNK1),kinase-Nluc reporter destabilization hit call (NTRK2),kinase-Nluc reporter destabilization hit call (NTRK3),kinase-Nluc reporter destabilization hit call (PAK4),kinase-Nluc reporter destabilization hit call (PBK),kinase-Nluc reporter destabilization hit call (PDGFRB),kinase-Nluc reporter destabilization hit call (PDK1),kinase-Nluc reporter destabilization hit call (PDPK1),kinase-Nluc reporter destabilization hit call (PIK4CA),kinase-Nluc reporter destabilization hit call (PIK4CB),kinase-Nluc reporter destabilization hit call (PLK1),kinase-Nluc reporter destabilization hit call (PRKAA1),kinase-Nluc reporter destabilization hit call (PRKCA),kinase-Nluc reporter destabilization hit call (PTK2),kinase-Nluc reporter destabilization hit call (PTK2B),kinase-Nluc reporter destabilization hit call (RAF1),kinase-Nluc reporter destabilization hit call [1]
CC(C)n1cnc2c(NCc3cccc(C(F)(F)F)c3)ncnc21 [Longdaysin] (10 µM),inactive: 0,inactive: 0,inactive: 0,inactive: 0,inactive: 0,inactive: 0,inactive: 0,inactive: 0,inactive: 0,inactive: 0,inactive: 0,inactive: 0,inactive: 0,inactive: 0,inactive: 0,inactive: 0,inactive: 0,inactive: 0,inactive: 0,inactive: 0
Cn1nc(C(C)(C)C)cc1NC(=O)Nc1ccc(Oc2ccncc2)cc1 (10 µM),inactive: 0,inactive: 0,inactive: 0,inactive: 0,inactive: 0,inactive: 0,inactive: 0,inactive: 0,inactive: 0,inactive: 0,inactive: 0,inactive: 0,inactive: 0,inactive: 0,inactive: 0,inactive: 0,inactive: 0,inactive: 0,inactive: 0,inactive: 0
